Laboratory results as given in US20250020651A1, “PERSONALIZED MODULATION THERAPY FOR CANCER” (Faeth Therapeutics, Inc., priority 2021, published 2025).
At least one compound was matched to its structure with a doubt left.

System: Pancreatic cancer cell lines BxPC3, CFPAC1, PANC1, DANG and PATU8902
Experiment: Crystal Violet cell growth with disulfiram in complete, P, S/G or P/S/G free media
Assay type: cell-based, Human
Settings: 3 days, Crystal Violet staining

CCN(CC)C(=S)SSC(=S)N(CC)CC [disulfiram]
cell kill by disulfiram under P/S/G restriction (P/S/G free media vs complete media): further sensitized cell kill
cell kill in response to disulfiram under S/G restriction (S/G free media vs complete media): improved cell kill
